Measured values from the supplement of paper PMC10849652.
The list shows a part of the results.

Sequences of proteins named here, by UniProt entry; tags and fusion partners are left off. A change or cut given only in a name is not applied to a line headed by its entry.
UniProt Q96EB6: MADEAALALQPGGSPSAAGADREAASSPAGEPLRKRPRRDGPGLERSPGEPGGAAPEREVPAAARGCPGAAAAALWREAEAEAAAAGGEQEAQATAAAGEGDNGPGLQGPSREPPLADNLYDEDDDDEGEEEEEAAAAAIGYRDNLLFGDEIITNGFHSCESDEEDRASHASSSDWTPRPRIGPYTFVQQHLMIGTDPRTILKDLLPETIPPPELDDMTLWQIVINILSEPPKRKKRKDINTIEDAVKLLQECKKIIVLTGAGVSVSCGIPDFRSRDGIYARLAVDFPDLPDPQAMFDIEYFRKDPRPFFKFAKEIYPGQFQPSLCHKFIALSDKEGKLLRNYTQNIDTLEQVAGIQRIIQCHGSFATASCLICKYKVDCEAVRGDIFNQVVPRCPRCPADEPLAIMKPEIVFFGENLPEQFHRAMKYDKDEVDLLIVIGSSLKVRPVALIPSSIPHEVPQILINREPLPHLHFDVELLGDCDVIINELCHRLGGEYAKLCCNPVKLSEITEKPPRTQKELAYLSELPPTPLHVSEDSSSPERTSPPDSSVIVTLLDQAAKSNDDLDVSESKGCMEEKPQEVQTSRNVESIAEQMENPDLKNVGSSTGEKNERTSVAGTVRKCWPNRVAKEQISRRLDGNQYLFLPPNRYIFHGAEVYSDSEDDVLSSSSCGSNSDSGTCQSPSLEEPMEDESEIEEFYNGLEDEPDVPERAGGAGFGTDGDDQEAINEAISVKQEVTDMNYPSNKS
UniProt Q12872: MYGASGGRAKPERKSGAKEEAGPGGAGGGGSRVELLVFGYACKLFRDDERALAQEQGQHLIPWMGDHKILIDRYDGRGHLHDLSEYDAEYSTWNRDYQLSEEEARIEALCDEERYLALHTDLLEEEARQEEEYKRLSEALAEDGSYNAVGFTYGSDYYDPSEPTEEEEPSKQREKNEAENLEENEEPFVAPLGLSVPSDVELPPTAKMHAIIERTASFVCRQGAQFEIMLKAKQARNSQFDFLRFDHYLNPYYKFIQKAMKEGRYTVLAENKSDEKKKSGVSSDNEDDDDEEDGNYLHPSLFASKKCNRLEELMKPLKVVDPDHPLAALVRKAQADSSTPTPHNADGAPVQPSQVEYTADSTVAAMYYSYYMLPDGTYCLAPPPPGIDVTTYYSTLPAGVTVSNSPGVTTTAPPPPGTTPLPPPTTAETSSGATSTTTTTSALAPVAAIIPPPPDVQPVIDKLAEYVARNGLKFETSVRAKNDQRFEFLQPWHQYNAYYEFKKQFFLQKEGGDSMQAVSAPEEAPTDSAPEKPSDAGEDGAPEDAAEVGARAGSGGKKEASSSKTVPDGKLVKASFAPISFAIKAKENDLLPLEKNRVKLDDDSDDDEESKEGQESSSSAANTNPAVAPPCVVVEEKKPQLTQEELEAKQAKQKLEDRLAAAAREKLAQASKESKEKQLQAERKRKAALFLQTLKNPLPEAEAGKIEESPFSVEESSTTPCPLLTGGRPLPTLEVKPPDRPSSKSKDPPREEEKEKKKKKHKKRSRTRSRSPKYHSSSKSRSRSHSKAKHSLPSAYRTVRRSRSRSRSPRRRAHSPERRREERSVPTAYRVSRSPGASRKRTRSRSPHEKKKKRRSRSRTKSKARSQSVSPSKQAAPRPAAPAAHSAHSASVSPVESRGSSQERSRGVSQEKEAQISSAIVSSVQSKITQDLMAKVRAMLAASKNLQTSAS
UniProt Q7L8J4: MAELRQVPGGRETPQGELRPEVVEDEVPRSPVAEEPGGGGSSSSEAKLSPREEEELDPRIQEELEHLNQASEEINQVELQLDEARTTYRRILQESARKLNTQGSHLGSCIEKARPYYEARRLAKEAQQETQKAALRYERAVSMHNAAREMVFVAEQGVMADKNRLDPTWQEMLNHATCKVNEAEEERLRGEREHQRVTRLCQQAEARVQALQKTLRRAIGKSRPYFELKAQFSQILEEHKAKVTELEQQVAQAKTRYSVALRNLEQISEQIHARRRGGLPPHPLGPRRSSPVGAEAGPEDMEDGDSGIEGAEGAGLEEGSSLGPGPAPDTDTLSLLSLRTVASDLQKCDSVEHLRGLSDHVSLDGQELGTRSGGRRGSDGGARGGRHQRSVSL
UniProt Q9NR46: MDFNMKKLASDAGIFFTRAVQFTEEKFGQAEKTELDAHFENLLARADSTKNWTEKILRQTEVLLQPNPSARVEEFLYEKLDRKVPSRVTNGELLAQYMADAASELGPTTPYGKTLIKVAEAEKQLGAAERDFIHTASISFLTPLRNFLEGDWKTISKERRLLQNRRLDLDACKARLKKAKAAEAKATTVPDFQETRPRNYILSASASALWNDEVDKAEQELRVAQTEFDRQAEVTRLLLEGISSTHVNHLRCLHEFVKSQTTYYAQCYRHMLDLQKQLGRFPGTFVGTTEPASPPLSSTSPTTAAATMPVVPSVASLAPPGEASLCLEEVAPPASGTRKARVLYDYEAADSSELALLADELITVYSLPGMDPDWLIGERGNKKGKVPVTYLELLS
UniProt Q86VZ5: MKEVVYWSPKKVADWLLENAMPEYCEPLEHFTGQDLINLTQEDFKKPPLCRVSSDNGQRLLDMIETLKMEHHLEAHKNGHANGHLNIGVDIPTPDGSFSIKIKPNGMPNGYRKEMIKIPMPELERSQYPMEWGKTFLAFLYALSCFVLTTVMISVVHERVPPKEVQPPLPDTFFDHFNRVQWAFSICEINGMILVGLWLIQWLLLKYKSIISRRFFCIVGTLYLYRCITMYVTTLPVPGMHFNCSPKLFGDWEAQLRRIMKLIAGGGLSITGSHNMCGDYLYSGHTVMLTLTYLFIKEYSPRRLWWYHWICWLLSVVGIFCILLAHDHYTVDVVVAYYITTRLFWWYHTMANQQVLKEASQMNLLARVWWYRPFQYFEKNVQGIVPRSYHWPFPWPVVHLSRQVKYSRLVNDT
UniProt Q13530: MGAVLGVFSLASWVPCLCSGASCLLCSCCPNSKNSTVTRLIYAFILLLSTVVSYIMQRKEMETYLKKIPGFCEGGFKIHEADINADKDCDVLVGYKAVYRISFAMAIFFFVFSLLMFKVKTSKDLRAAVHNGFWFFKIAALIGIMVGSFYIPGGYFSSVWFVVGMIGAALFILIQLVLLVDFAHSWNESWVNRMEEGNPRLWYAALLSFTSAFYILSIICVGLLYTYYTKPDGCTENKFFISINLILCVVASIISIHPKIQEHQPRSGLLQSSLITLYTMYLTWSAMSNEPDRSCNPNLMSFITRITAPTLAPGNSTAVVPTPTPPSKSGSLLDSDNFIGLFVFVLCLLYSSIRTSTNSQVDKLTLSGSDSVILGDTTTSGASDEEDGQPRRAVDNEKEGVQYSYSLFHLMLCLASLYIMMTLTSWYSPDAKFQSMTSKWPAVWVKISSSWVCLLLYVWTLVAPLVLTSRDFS
UniProt Q8NBJ9: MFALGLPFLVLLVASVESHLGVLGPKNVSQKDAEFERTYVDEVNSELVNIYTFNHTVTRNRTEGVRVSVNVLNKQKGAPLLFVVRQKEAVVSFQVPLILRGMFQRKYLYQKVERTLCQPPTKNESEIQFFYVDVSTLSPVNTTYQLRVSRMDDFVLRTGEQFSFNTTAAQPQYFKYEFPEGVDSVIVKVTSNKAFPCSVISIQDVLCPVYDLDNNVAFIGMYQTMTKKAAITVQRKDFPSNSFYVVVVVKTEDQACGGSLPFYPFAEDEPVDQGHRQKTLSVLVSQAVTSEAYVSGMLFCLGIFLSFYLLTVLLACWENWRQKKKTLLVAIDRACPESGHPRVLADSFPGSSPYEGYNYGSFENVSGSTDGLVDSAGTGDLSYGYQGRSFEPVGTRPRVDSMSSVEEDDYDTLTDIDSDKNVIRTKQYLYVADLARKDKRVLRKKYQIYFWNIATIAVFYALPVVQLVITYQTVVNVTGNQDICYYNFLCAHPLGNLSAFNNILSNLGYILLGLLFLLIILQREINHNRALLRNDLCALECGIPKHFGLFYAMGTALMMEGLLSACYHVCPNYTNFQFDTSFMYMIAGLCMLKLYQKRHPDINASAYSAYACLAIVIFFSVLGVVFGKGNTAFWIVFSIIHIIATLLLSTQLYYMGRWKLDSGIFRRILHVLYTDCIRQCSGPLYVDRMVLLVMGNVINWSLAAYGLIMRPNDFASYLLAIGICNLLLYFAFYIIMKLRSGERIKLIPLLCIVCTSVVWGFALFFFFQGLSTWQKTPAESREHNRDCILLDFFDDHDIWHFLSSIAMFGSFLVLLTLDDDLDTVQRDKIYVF
UniProt Q96FS4: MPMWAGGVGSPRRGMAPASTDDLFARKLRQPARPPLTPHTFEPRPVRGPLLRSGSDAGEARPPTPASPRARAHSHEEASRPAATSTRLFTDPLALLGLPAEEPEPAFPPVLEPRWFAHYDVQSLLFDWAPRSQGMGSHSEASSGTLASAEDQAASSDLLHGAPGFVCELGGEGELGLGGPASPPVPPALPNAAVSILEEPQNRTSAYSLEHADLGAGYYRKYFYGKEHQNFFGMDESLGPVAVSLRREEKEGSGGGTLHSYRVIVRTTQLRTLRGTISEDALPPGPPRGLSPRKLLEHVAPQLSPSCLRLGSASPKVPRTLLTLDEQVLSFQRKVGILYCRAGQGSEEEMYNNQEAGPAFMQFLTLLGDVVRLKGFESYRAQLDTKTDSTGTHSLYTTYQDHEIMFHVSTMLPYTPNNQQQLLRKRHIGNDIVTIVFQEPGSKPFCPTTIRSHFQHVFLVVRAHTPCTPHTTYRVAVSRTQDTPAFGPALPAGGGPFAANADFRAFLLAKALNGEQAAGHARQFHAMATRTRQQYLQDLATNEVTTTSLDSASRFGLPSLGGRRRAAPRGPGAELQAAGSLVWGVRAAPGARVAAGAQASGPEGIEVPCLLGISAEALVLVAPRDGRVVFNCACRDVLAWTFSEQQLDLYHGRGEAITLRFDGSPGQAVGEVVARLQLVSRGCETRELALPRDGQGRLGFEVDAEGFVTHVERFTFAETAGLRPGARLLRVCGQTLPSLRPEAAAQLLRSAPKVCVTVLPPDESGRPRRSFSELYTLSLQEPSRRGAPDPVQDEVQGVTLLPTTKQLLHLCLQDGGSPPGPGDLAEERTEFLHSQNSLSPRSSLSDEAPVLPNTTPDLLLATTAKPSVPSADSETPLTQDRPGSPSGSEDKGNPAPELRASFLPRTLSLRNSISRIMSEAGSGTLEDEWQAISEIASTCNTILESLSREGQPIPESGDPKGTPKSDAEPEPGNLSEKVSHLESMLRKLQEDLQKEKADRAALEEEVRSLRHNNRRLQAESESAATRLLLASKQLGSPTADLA
UniProt Q99961: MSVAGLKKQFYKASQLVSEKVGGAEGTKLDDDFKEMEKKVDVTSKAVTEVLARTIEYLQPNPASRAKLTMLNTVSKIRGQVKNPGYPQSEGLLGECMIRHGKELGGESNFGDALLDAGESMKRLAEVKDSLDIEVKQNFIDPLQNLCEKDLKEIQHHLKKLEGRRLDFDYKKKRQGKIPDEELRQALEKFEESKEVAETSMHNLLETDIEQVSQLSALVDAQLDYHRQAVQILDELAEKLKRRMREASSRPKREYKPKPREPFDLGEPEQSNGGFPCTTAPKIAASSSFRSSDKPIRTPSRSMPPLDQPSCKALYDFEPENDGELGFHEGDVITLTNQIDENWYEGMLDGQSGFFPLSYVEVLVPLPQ
UniProt Q53H47: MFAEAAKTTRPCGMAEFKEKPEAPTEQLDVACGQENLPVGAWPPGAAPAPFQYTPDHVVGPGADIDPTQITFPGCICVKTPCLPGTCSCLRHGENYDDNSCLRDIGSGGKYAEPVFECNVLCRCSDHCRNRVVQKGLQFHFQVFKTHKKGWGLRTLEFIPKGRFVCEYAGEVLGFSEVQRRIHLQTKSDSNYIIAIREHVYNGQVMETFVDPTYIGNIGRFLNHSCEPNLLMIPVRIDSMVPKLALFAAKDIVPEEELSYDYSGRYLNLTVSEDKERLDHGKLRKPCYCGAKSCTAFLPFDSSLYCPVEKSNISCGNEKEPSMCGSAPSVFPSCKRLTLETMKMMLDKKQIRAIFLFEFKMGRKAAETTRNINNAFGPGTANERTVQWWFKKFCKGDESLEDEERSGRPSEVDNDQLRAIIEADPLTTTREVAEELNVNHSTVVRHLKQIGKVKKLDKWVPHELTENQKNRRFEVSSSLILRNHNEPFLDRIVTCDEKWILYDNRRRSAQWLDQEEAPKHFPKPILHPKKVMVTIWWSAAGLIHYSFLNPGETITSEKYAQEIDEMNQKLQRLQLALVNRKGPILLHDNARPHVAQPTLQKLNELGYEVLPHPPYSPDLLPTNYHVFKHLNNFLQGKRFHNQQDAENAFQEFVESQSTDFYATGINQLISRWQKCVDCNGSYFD
UniProt Q9BRV8: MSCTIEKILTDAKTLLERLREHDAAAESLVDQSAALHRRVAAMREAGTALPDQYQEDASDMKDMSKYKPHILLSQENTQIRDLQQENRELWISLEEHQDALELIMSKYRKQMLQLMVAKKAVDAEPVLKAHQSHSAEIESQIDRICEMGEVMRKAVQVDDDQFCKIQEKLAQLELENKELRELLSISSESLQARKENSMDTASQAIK

How the values were obtained:
Assay in all cases: log2 fold change, soluble protein after heating vs DMSO (PISA); higher = thermal stabilisation; K562 cells, 10 uM, 30 min; active = over 0.2 and 3.5 SD of the protein, either way, in both replicates (recomputed)
[1] = compound: CC1=C(C=C(C=C1)NC(=O)C2=CC(=CC=C2)C(C)(C)C#N)NC3=CC4=C(C=C3)N=CN(C4=O)C
Summary of the method: (§1)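 K562 cells at 2×10^6 cells/mL were given 10 μM compound for 30 min. Aliquots then went through 3 min of heating across 48°C-58°C, were pooled, and were extracted in PBS with 0.5% NP-40 at 4°C, and the supernatant after 21,000xg for 90 min was quantified by TMTpro 16plex LC-MS/MS with channel sums equalised. Thermal stability relative to control samples, from duplicates, is given as log2 fold change.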

[2] = compound: CC1=C(C=C(C=C1)NC(=O)C2=CC(=CC=C2)N(C)C)NC(=O)C3=CC=C(C=C3)O
Summary of the method: as §1

[3] = compound: CC1=CC=C(C=C1)SC2=C3C=C(SC3=CN=C2)C(=O)N
Summary of the method: as §1

[4] = compound: CC1=NC(=CC=C1)C2=C(N=C(N2)C(C)(C)C)C3=CC4=NC=CN=C4C=C3
Summary of the method: as §1

[5] = compound: CCCCN(Cc1ccc(C(=O)NO)cc1)C(=O)Nc1ccccc1 [Nexturastat A]
Summary of the method: as §1

[6] = compound: CCCS(=O)(=O)Nc1ccc(F)c(C(=O)c2c[nH]c3ncc(-c4ccc(Cl)cc4)cc23)c1F [vemurafenib]
Summary of the method: as §1

[7] = compound: CCCS(=O)(=O)Nc1ccc(F)c(C(=O)c2c[nH]c3ncc(Cl)cc23)c1F
Summary of the method: as §1

[8] = compound: CCCc1cc(C)[nH]c(=O)c1CNC(=O)c1cc(-c2ccnc(N3CCN(C)CC3)c2)cc2c1cnn2C(C)C
Summary of the method: as §1

[9] = compound: CCN(CC)Cc1ccc2cc(COC(=O)Nc3ccc(C(=O)NO)cc3)ccc2c1 [givinostat]
Summary of the method: as §1

[10] = compound: CCN(CCCOc1ccc2c(Nc3cc(CC(=O)Nc4cccc(F)c4)[nH]n3)ncnc2c1)CCOP(=O)(O)O [barasertib]
Summary of the method: as §1

[11] = compound: CC[C@@H]1C(=O)N(C)c2cnc(Nc3ccc(C(=O)NC4CCN(C)CC4)cc3OC)nc2N1C1CCCC1
Summary of the method: as §1

[12] = compound: CC[C@@H]1C(=O)N(C)c2cnc(Nc3ccc(C(=O)N[C@H]4CC[C@H](N5CCN(CC6CC6)CC5)CC4)cc3OC)nc2N1C(C)C [volasertib]
Summary of the method: as §1

[13] = compound: CC[C@H](C)N1C=C(C2=C(C=C(C=C21)C3=CN=C(C=C3)N4CCNCC4)C(=O)NCC5=C(C=C(NC5=O)C)C)C
Summary of the method: as §1

[14] = compound: CC[C@H](C)[C@@H](C(=O)N[C@@H]([C@@H](C)O)C(=O)N[C@@H](CC(C)C)C(=O)[C@]1(CO1)C)NC(=O)[C@H]([C@@H](C)CC)N(C)C(=O)C [epoxomicin]
Summary of the method: as §1

[15] = compound: CCn1c(C(=O)N(C2CC2)C2CC2)cc2c3c(ncn3C)c(Nc3cc(C)n(C)n3)nc21
Summary of the method: as §1

[16] = compound: CCn1cc(-c2ccnc3[nH]c(-c4cccc(CN(C)C)c4)cc23)c(-c2ccc(NC(=O)N(C)C)cc2)n1
Summary of the method: as §1

[17] = compound: CN(C)CC(=O)Nc1ccc2[nH]c(=O)c3ccccc3c2c1
Summary of the method: as §1

[18] = compound: CN(CCOC1=CC=C(C=C1)C[C@H]2C(=O)NC(=O)S2)C3=CC=CC=N3 (racemic) [rosiglitazone]
Summary of the method: as §1

[19] = compound: CN1C2=C(C3=C1C(=O)N(N=C3)CC4=CC(=CC=C4)N)SC(=C2)S(=O)C
Summary of the method: as §1

[20] = compound: CN1CCC(CNc2ccc3ncc(-c4cccc(OC(F)(F)F)c4)n3n2)CC1
Summary of the method: as §1

Row | Target | log2 fold change [1] | log2 fold change [2] | log2 fold change [3] | log2 fold change [4] | log2 fold change [5] | log2 fold change [6] | log2 fold change [7] | log2 fold change [8] | log2 fold change [9] | log2 fold change [10] | log2 fold change [11] | log2 fold change [12] | log2 fold change [13] | log2 fold change [14] | log2 fold change [15] | log2 fold change [16] | log2 fold change [17] | log2 fold change [18] | log2 fold change [19] | log2 fold change [20]
1 | SIRT1 (UniProt Q96EB6) | inactive: 0.007 | inactive: 0.005 | inactive: -0.035 | inactive: -0.004 | inactive: 0.022 | inactive: 0.021 | inactive: 0.046 | inactive: 0.066 | inactive: -0.008 | inactive: 0.031 | inactive: -0.102 | inactive: 0.203 | inactive: 0.056 | inactive: -0.041 | inactive: 0.024 | inactive: 0 | inactive: 0.015 | inactive: 0.001 | inactive: -0.017 | inactive: 0.011
2 | SFSWAP isoform 2 (UniProt Q12872) | inactive: -0.003 | inactive: 0.04 | inactive: -0.008 | inactive: -0.008 | inactive: 0.055 | inactive: 0 | inactive: 0.055 | inactive: -0.007 | inactive: 0.08 | inactive: -0.19 | inactive: 0.059 | inactive: -0.231 | inactive: 0.049 | inactive: 0.005 | inactive: 0.019 | inactive: 0.063 | inactive: 0.038 | inactive: -0.01 | inactive: 0.008 | inactive: 0
3 | SH3BP5L (UniProt Q7L8J4) | inactive: 0.009 | inactive: 0.119 | inactive: 0.07 | inactive: 0.057 | inactive: 0.06 | inactive: 0.023 | inactive: 0.051 | inactive: -0.004 | inactive: 0.025 | inactive: 0 | inactive: -0.02 | inactive: -0.039 | inactive: -0.036 | inactive: 0.008 | inactive: -0.088 | inactive: 0.123 | inactive: 0.056 | inactive: 0.08 | inactive: 0.029 | inactive: 0.13
4 | SH3GLB2 (UniProt Q9NR46) | inactive: 0.047 | inactive: -0.052 | inactive: 0.025 | inactive: 0.033 | inactive: -0.064 | inactive: 0.058 | inactive: 0.058 | inactive: 0.021 | inactive: 0.049 | inactive: 0.051 | inactive: -0.148 | active: -0.378 | inactive: 0.072 | inactive: 0.041 | – | inactive: -0.101 | inactive: 0.033 | – | inactive: 0.016 | inactive: -0.254
5 | SFXN2 (UniProt Q96NB2) | inactive: -0.012 | inactive: 0.016 | inactive: 0.064 | inactive: 0.062 | inactive: -0.007 | inactive: 0.011 | inactive: 0.028 | inactive: -0.019 | inactive: -0.034 | inactive: -0.012 | inactive: -0.005 | inactive: -0.016 | inactive: 0.015 | inactive: 0.006 | inactive: -0.031 | inactive: -0.003 | inactive: 0.069 | inactive: -0.063 | inactive: -0.107 | inactive: -0.088
6 | SEC61B (UniProt P60468) | inactive: 0.003 | inactive: 0.027 | inactive: -0.025 | inactive: -0.003 | inactive: -0.085 | inactive: 0.027 | inactive: -0.073 | inactive: -0.015 | inactive: -0.017 | inactive: 0.009 | inactive: 0.044 | inactive: 0.14 | inactive: -0.067 | inactive: 0.019 | inactive: 0.05 | inactive: 0.036 | inactive: -0.028 | inactive: -0.033 | inactive: 0.006 | inactive: 0.026
7 | SGMS1 (UniProt Q86VZ5) | inactive: -0.034 | inactive: -0.018 | inactive: -0.025 | inactive: 0.005 | inactive: -0.091 | inactive: 0.067 | inactive: -0.066 | inactive: 0.003 | inactive: -0.007 | inactive: -0.025 | inactive: -0.007 | inactive: -0.049 | inactive: -0.009 | inactive: 0 | inactive: 0.003 | inactive: 0.011 | inactive: -0.002 | inactive: 0.009 | inactive: -0.074 | inactive: 0.12
8 | SERPINA7 (UniProt P05543) | inactive: -0.121 | inactive: 0.496 | inactive: 0.067 | inactive: -0.021 | inactive: 0.086 | inactive: -0.06 | inactive: -0.271 | inactive: -0.349 | inactive: -0.043 | inactive: -0.127 | inactive: 0.055 | inactive: 0.309 | inactive: 0.044 | active: -0.68 | – | inactive: 0.036 | inactive: -0.123 | – | inactive: 0.255 | inactive: 0.279
9 | SERINC3 (UniProt Q13530) | inactive: -0.136 | inactive: -0.001 | inactive: 0.009 | inactive: 0.054 | inactive: 0.011 | inactive: 0.083 | inactive: 0.002 | active: -0.414 | inactive: 0.064 | inactive: 0.038 | inactive: 0.165 | inactive: 0.075 | inactive: -0.144 | inactive: -0.092 | – | inactive: -0.064 | inactive: 0.043 | – | inactive: -0.014 | inactive: 0.046
10 | SIDT2 isoform 2 (UniProt Q8NBJ9) | inactive: -0.021 | inactive: 0.019 | inactive: -0.025 | active: -0.367 | inactive: 0.042 | inactive: 0.019 | inactive: -0.033 | inactive: 0.017 | inactive: 0.038 | inactive: -0.148 | inactive: -0.035 | inactive: 0.055 | inactive: -0.026 | inactive: 0.002 | – | inactive: 0.069 | inactive: -0.041 | – | inactive: 0.024 | inactive: -0.02
11 | SELENBP1 isoform 4 (UniProt Q13228) | inactive: 0.029 | inactive: -0.009 | inactive: 0.022 | inactive: 0.063 | inactive: -0.024 | inactive: 0.03 | inactive: -0.015 | inactive: 0 | inactive: -0.062 | inactive: 0.003 | inactive: -0.026 | inactive: 0.048 | inactive: -0.006 | inactive: 0.041 | inactive: -0.035 | inactive: 0.006 | inactive: -0.005 | inactive: -0.014 | inactive: -0.014 | inactive: -0.04
12 | SIPA1 (UniProt Q96FS4) | inactive: 0 | inactive: 0.053 | inactive: 0.003 | inactive: 0.009 | inactive: 0.082 | inactive: -0.036 | inactive: -0.016 | inactive: -0.002 | inactive: -0.038 | inactive: -0.008 | inactive: -0.014 | inactive: -0.081 | inactive: -0.078 | inactive: -0.018 | inactive: -0.125 | inactive: -0.086 | inactive: 0.045 | inactive: 0.017 | inactive: -0.002 | inactive: -0.02
13 | SH3GL1 (UniProt Q99961) | inactive: 0.022 | inactive: -0.077 | inactive: 0.06 | inactive: 0.021 | inactive: 0.141 | inactive: 0.1 | inactive: 0.1 | inactive: 0.037 | inactive: 0.024 | inactive: 0.084 | inactive: -0.137 | active: -0.459 | inactive: 0.082 | inactive: 0.008 | – | inactive: -0.028 | inactive: 0.091 | – | inactive: -0.006 | inactive: -0.196
14 | SETDB1 (UniProt Q15047) | inactive: 0.036 | inactive: -0.084 | inactive: 0.015 | inactive: -0.055 | inactive: 0.249 | inactive: 0.073 | inactive: 0.012 | inactive: 0.155 | inactive: 0.203 | – | inactive: -0.05 | inactive: -0.007 | inactive: -0.476 | inactive: 0 | inactive: -0.093 | inactive: -0.095 | inactive: 0.043 | – | inactive: -0.055 | inactive: -0.118
15 | SHMT1 (UniProt P34896) | inactive: 0.028 | inactive: -0.001 | inactive: 0.034 | inactive: -0.02 | inactive: -0.108 | inactive: -0.007 | inactive: -0.001 | inactive: -0.052 | inactive: -0.019 | inactive: -0.009 | inactive: 0.056 | inactive: 0.016 | inactive: -0.026 | inactive: -0.024 | inactive: 0.018 | inactive: -0.016 | inactive: -0.018 | inactive: -0.002 | inactive: -0.034 | inactive: -0.051
16 | SETMAR (UniProt Q53H47) | inactive: 0.128 | inactive: 0.061 | inactive: -0.023 | inactive: -0.049 | inactive: -0.041 | inactive: 0.018 | inactive: 0.021 | inactive: 0.01 | inactive: -0.036 | inactive: 0.051 | inactive: -0.071 | inactive: -0.045 | inactive: 0.058 | inactive: 0.045 | – | inactive: 0.015 | inactive: 0.012 | – | inactive: -0.045 | inactive: 0.108
17 | SIKE1 (UniProt Q9BRV8) | inactive: 0.031 | inactive: 0.005 | inactive: 0.026 | inactive: -0.041 | inactive: 0.169 | inactive: 0.034 | inactive: -0.023 | inactive: -0.164 | inactive: -0.009 | inactive: 0.113 | – | inactive: -0.123 | inactive: 0.174 | inactive: 0.055 | inactive: 0.002 | inactive: -0.054 | inactive: -0.004 | inactive: -0.026 | inactive: 0.02 | inactive: -0.006

Some of the entries above in a different format.

| Row | Target | log2 fold change [1] | log2 fold change [2] | log2 fold change [3] | log2 fold change [4] | log2 fold change [5] | log2 fold change [6] | log2 fold change [7] | log2 fold change [8] | log2 fold change [9] | log2 fold change [10] | log2 fold change [11] | log2 fold change [12] | log2 fold change [13] | log2 fold change [14] | log2 fold change [15] | log2 fold change [16] | log2 fold change [17] | log2 fold change [18] | log2 fold change [19] | log2 fold change [20] |
| --- | --- | --- | --- | --- | --- | --- | --- | --- | --- | --- | --- | --- | --- | --- | --- | --- | --- | --- | --- | --- | --- |
| 16 | SETMAR (UniProt Q53H47) | inactive: 0.128 | inactive: 0.061 | inactive: -0.023 | inactive: -0.049 | inactive: -0.041 | inactive: 0.018 | inactive: 0.021 | inactive: 0.01 | inactive: -0.036 | inactive: 0.051 | inactive: -0.071 | inactive: -0.045 | inactive: 0.058 | inactive: 0.045 | – | inactive: 0.015 | inactive: 0.012 | – | inactive: -0.045 | inactive: 0.108 |
| 17 | SIKE1 (UniProt Q9BRV8) | inactive: 0.031 | inactive: 0.005 | inactive: 0.026 | inactive: -0.041 | inactive: 0.169 | inactive: 0.034 | inactive: -0.023 | inactive: -0.164 | inactive: -0.009 | inactive: 0.113 | – | inactive: -0.123 | inactive: 0.174 | inactive: 0.055 | inactive: 0.002 | inactive: -0.054 | inactive: -0.004 | inactive: -0.026 | inactive: 0.02 | inactive: -0.006 |
